Values quoted from earlier work in patent US8486426B2, “Methods and compositions for treatment of dermal conditions” (Kimberly-Clark Worldwide, Inc., priority 2002, dated 2013).
At least one compound was matched to its structure with a doubt left.

System: onychomycosis
Conditions: total dystrophic onychomycosis (TDO), oral drug

CCC(C)n1ncn(-c2ccc(N3CCN(c4ccc(OCC5COC(Cn6cncn6)(c6ccc(Cl)cc6Cl)O5)cc4)CC3)cc2)c1=O (stereo not shown) [SPORANOX, itraconazol]
Clinical cure rate: about 27%
